“Also recorded” adds a separate entry of the source. At least one structure is not confirmed: it was looked up by name or label, or the drawing left a doubt.
Test system: human pluripotent stem cells (hPSC)
Assay: Differentiation of human pluripotent stem cells (hPSC) into corneal endothelial cell (CEC)-like cells
Assay type: cell-based
Method: Embryonic (hESC) and induced pluripotent stem cells (iPSC) were used to generate CECs. Briefly, hPSCs were seeded on Laminin 521 (Biolamina) coated CellBind 6/12 well-plates (Corning) in 10 000-60 000 cell/cm 2 cell density. The cells were cultured in Essential 8 Flex medium (Thermo Fisher) for 24h. On day 1, Essential 8 flex medium was replaced with an induction medium supplemented with 10 μM SB431542 (Stemcell), 4 μM CHIR99021 (Stemcell) and 10 μM retinoic acid (RA, Sigma-Aldrich). Base of the induction medium consisted of KO-DMEM, 15% Knock-out serum replacement, 2 mM GlutaMax-I, 0.1 mM 2-mercaptoethanol (all from Thermo Fisher), 1% Non-essential Amino Acids, 50 U/ml Penicillin/Streptomycin. […] After day 9, CEC-like cells were formed, and harvested for analyses.
The hPSC-derived CECs were analyzed by immunocytochemistry. Briefly, the cells were fixed with 1 or 4% paraformaldehyde (PFA, Sigma-Aldrich) for 15 minutes. Next, the cells were permeabilized for 10 minutes with 0.1% Triton X-100 (Sigma-Aldrich) followed by blocking with 3% bovine serum albumin (BSA) for 1 hour. Then the cells were first incubated with 1:400 zona occludens-1 (ZO-1; Thermo Fisher), 1:200 alpha 1 sodium potassium ATPase (Na+/K+-ATPase, Abcam) and 1:400 CD166 (BD Biosciences) primary antibodies overnight at 4° C. The cells were next treated with 1:800 Donkey anti-Rabbit IgG Secondary Antibody, Alexa Fluor 488 (Thermo Fisher) against ZO-1; 1:800 Donkey anti-Mouse IgG Secondary Antibody, Alexa Fluor 568 (Thermo Fisher) against Na+/K+-ATPase and CD166; and 1:800 Donkey anti-Goat IgG Secondary Antibody, Alexa Fluor 568 (Thermo Fisher) against OCT-3/4. […] The images of mounted cells were captured using a fluorescence microscope (Olympus IX51; Olympus, Tokyo, Japan) and prepared using image editing software (Adobe Photoshop CC 2018; Adobe Systems) […]
Total RNA was extracted from undifferentiated hPSCs (d0), and from 3 time points during the time of hCEC induction (d3, d6 and d9) with Rneasy Minikit Plus (Qiagen). RNA concentration of each sample was determined using NanoDrop-1000 spectrophotometer (NanoDrop Technologies). […] The resulting cDNA samples were analyzed with qPCR using sequence-specific TaqMan Gene Expression Assays (Thermo Fisher) for OCT4 (Hs00999632_g1), PITX2 (Hs01553179_m1), AQP1 (Hs01028916_m1), SLC4A4 (Hs00186798_m1), and FOXC1 (Hs00559473_s1). […] Results were analyzed with the 7300 System SDS Software (Applied Biosystems) and Microsoft Excel. Based on the cycle threshold (CT) values given by the software, the relative quantification of each gene was calculated by applying the […] (Livak and Schmittgen, 2001). Results were normalized to GAPDH (Hs99999905_m1), with the undifferentiated hPSCs as the calibrator to determine the relative quantities of gene expression in each sample.

CC1=C(/C=C/C(C)=C/C=C/C(C)=C/C(=O)O)C(C)(C)CCC1 [RA, retinoic acid]
effect of too long an exposure on cell culture (RA exposure longer than 3 to 10 days): results in the formation on vacuoles and emergence of adipocyte-like cells
formation of dome-like structures in the cell monolayer (indicating barrier properties and pumping activity) (RA for the first 3-5 days with SB431542 and CHIR99021, phase contrast microscopy, not seen without RA): caused the cell monolayer to form dome-like structures; also recorded: induced the formation of dome-like structures
Na+/K+ATPase immunostaining compared with cultured human primary CECs (day 12, RA for the first three days of culture): resembled closely to cultured human primary CECs
formation of CEC-like cells and mesenchyme-like areas positive with periocular mesenchyme markers (PITX2, FOXC1) (from day 5 onwards, RA with SB431542 and CHIR99021): contributed to the formation of CEC-like cells and mesenchyme-like areas positive with periocular mesenchyme markers
